The values that follow come from PMC6379952.

Protein sequences, listed by entry. Tags and fused reporters are not part of them.
UniProt P84077: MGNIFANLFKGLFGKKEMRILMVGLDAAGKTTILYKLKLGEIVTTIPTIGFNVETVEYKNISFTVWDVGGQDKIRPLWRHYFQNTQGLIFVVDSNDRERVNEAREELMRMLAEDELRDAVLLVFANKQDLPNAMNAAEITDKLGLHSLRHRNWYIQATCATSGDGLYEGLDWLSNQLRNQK

The target in the assay is epidermal growth factor receptor (human (endogenous in HN12)) (UniProt P00533). As to the kind of experiment: co-IP; 500 ug HN12 cell lysate in IP lysis buffer (20 mM Tris-HCl pH 8.0, 137 mM NaCl, 2 mM EDTA, 1% Nonidet P-40, protease and phosphatase inhibitors), antibody overnight at 4 C, Protein A/G Sepharose 4 h; preimmune IgG as negative control; also cells treated with 5 uM erlotinib (decreased Arf1 in the EGFR immunocomplex).

Results are given in words; binding and its absence hold for the method and conditions named. Binding seen in cells or lysates may run through a third protein. Some entries that bind do so weakly or less than the wild type.

Regarding “ADP-ribosylation factor 1 (from UniProt P84077 1-181)”, the binding entry was “binds”.
